This is one part of the list.
What was measured:
Test in all cases: log2 fold change, soluble protein after heating vs DMSO (PISA); higher = thermal stabilisation; K562 lysate, 10 uM; active = over 0.2 and 3.5 SD of the protein, either way, in both replicates (recomputed)
[1] = compound: C#Cc1cccc(Nc2ncnc3cc(OCCOC)c(OCCOC)cc23)c1 [erlotinib]
Summary of the method: (§1)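 Dounce homogenisation of K562 pellets in PBS pH 7.4 with 1 mM MgCl2 produced a crude extract, used at 1 mg/mL protein. Exposure to 10 μM compound lasted 30 min, and aliquots were then heated for 3 min across 48°C-58°C, pooled and brought to 0.5% NP-40 at 4°C. The supernatant after 21,000xg for 90 min was quantified by TMTpro 16plex LC-MS/MS with channel sums equalised. Duplicate values are given as log-two fold change in thermal stability relative to solvent controls.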

Amino acid sequences for entries named in this document (tags omitted). A change or cut given only in a name is not applied to a line headed by its entry.
UniProt Q9Y5N5: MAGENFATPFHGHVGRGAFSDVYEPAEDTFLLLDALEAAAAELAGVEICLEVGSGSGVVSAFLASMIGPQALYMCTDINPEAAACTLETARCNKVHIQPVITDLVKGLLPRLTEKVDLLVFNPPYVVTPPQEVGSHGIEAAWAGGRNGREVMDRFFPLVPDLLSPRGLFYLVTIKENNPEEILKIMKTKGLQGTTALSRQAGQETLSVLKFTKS
UniProt Q6IA69: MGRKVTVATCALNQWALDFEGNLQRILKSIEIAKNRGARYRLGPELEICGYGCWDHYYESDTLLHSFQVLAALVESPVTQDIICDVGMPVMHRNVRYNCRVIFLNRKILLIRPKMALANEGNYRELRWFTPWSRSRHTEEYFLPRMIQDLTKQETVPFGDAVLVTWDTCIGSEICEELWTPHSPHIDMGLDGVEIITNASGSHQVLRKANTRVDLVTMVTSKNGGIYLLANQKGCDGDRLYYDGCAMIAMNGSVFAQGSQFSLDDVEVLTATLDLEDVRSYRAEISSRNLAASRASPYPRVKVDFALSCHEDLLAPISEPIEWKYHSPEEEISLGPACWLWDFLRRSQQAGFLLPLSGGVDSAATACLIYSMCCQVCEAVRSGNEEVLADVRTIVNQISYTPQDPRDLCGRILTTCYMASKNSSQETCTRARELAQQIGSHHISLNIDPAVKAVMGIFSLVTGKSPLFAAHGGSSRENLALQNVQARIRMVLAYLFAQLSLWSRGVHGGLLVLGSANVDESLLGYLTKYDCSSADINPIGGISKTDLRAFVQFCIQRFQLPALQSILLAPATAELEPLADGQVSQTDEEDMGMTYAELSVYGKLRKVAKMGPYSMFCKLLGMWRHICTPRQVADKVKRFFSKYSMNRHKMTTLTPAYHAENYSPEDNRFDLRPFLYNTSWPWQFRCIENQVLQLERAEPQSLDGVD
UniProt Q9UM54, whole entry, looked up: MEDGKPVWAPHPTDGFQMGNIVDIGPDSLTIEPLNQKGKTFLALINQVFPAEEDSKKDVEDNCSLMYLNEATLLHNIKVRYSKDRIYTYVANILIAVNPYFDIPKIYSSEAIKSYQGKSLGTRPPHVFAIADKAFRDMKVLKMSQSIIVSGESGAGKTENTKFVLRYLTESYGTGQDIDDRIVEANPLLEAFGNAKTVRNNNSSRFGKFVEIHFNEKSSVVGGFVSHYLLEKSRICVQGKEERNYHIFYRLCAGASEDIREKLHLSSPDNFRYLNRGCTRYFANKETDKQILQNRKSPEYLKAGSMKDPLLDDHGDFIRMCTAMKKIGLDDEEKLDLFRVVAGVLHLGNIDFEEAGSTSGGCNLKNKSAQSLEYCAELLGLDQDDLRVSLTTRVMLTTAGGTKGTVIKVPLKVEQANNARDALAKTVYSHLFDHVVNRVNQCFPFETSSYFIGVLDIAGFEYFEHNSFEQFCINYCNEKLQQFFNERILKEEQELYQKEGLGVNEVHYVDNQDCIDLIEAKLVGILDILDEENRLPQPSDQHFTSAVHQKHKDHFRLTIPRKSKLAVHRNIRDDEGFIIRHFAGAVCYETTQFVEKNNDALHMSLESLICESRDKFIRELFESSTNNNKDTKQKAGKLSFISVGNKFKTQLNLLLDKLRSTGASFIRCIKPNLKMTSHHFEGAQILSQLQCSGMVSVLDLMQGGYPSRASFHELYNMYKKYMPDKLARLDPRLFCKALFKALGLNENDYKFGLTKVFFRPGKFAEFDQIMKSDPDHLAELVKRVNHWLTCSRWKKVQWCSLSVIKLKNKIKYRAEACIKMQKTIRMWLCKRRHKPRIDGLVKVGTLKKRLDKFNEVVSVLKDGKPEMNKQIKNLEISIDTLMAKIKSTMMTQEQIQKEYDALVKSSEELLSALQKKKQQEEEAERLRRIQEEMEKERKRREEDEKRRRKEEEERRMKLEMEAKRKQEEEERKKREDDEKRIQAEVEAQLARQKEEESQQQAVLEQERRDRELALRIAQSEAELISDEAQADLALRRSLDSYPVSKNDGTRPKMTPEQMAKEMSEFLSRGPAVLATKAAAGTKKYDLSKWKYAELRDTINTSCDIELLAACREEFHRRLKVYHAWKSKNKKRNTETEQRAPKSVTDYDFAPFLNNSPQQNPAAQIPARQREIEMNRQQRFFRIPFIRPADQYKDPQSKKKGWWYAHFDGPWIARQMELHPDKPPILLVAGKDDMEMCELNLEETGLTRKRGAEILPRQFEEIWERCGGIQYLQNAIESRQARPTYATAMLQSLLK
UniProt Q96HR8: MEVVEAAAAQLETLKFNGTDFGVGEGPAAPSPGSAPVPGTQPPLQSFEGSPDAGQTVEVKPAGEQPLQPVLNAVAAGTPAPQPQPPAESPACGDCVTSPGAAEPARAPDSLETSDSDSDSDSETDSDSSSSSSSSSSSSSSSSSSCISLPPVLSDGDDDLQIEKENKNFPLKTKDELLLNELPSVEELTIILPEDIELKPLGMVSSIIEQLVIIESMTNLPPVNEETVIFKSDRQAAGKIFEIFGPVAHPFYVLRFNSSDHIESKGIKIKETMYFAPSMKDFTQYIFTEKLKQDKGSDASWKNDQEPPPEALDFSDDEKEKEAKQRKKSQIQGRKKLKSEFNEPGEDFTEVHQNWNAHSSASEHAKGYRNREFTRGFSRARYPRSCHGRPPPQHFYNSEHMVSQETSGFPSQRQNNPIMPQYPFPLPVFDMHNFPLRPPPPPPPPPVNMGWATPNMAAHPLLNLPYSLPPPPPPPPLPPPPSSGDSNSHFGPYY
UniProt Q13772: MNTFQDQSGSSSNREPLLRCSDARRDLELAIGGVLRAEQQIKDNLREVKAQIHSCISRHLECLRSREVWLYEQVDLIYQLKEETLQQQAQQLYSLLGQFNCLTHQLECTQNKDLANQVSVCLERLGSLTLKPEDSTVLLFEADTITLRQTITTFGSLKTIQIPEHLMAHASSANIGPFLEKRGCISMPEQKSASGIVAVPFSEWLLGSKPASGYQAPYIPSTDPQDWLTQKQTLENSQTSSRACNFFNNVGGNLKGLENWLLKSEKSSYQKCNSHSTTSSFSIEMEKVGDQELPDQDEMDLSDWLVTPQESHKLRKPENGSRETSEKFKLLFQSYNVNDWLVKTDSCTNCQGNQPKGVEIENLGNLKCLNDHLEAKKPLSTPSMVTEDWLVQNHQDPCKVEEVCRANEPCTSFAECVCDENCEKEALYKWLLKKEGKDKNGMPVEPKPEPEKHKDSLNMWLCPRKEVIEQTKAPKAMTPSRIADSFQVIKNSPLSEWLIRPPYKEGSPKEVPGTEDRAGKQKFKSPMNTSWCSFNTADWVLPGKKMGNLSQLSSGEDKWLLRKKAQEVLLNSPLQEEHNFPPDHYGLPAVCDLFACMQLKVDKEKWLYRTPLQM
UniProt Q92542, whole entry, looked up: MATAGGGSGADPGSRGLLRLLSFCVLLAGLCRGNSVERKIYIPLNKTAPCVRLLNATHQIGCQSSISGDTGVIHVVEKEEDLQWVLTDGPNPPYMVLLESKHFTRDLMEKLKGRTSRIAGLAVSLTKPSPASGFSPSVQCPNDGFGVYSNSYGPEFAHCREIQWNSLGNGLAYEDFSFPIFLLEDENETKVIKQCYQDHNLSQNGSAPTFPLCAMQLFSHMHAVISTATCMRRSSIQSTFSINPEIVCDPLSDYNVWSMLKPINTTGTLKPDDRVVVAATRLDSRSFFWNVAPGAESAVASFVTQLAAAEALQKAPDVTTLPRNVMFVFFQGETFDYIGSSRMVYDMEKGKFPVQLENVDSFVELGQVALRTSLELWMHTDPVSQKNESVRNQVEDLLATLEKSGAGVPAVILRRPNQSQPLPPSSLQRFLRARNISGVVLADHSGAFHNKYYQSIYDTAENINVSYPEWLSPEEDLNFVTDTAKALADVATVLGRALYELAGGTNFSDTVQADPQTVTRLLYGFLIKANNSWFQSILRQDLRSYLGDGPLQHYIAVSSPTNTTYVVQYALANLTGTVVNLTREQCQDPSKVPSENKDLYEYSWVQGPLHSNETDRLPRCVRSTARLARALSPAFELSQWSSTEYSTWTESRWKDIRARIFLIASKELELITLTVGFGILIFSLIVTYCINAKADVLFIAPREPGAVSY
UniProt Q6PIU2: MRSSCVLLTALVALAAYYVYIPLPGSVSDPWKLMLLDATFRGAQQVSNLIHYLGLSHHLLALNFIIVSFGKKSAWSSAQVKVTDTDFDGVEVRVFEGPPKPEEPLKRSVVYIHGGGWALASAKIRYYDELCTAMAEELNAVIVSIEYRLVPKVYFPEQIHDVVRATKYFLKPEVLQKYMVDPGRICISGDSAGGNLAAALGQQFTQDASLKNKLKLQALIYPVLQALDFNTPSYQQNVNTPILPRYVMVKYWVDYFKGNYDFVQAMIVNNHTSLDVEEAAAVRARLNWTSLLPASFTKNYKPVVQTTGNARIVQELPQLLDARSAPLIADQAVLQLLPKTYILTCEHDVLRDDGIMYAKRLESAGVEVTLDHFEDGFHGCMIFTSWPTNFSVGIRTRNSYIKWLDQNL
UniProt Q15596: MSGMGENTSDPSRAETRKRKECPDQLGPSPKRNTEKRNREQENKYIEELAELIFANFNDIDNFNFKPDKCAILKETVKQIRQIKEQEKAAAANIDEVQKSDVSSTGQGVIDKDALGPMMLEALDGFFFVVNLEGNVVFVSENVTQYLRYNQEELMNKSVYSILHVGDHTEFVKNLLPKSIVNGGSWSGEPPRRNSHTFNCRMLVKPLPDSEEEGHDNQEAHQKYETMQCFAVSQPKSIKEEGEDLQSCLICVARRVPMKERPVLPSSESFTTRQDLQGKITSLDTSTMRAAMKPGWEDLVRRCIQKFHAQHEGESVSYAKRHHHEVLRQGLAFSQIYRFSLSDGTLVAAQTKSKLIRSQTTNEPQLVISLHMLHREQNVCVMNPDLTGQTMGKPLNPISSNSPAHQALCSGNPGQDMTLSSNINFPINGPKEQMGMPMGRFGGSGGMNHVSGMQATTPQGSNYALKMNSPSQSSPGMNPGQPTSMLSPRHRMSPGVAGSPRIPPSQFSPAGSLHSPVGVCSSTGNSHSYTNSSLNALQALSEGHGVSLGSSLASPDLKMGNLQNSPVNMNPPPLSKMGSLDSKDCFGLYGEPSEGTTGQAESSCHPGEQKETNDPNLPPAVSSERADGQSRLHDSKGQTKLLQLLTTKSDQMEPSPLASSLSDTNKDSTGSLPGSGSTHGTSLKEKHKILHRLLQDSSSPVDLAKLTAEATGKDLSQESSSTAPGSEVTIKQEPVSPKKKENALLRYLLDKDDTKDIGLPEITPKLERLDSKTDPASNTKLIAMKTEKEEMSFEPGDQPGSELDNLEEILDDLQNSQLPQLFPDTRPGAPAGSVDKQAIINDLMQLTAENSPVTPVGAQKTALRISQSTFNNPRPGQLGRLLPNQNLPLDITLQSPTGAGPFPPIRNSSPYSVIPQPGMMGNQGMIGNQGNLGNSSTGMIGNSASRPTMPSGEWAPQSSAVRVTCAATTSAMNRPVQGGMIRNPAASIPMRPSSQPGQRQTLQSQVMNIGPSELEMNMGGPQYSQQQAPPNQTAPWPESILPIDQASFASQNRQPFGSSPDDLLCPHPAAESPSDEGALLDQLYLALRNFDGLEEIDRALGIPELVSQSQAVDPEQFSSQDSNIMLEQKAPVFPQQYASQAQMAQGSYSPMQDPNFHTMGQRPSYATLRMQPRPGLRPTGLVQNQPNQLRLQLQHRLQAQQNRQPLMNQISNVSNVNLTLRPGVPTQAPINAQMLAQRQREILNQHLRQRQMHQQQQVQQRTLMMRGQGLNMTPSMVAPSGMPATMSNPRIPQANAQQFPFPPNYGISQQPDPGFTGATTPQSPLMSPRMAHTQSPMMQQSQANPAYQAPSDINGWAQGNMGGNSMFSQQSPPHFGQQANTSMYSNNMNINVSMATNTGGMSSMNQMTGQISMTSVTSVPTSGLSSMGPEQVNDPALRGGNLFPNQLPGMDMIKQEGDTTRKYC

[2] = compound: C/C(=N\NC(=O)C1=CC(=CC=C1)S(=O)(=O)N2CCOCC2)/C3=C(C=CC(=C3)Cl)O
Summary of the method: as §1

[3] = compound: C1=CC(=CC=C1C2=NC3=C(N2)C=C(C=C3)C(=O)N)OC4=CC=C(C=C4)Cl
Summary of the method: as §1

[4] = compound: C1=CC2=C(C=CC(=C2)/C=C\3/C(=O)NC(=NCC4=CC=CS4)S3)N=C1
Summary of the method: as §1

[5] = compound: C1=CC2=NC=CN=C2C=C1/C=C/3\C(=O)NC(=O)S3
Summary of the method: as §1

[6] = compound: C1=CC=C(C=C1)C2=NC(=C(N2)C3=CC=NC=C3)C4=CC(=C(C=C4)Cl)O
Summary of the method: as §1

[7] = compound: C1=CC=C2C(=C1)C3=NNC4=CC=CC(=C43)C2=O
Summary of the method: as §1

[8] = compound: C1CCN(C1)C(=O)NC2=CC=CC(=C2)NC3=NC=C(C(=N3)NCCC4=CN=CN4)Br
Summary of the method: as §1

[9] = compound: C1CN(CCC1(CC2=CC=C(C=C2)Cl)N)C3=NC=NC4=C3C=CN4
Summary of the method: as §1

[10] = compound: C1COCCN1CCN2C3=CC=CC=C3N=C2NC(=O)C4=CC(=CC=C4)[N+](=O)[O-] [IRAK-1-4 Inhibitor I]
Summary of the method: as §1

[11] = compound: C=CC(=O)N1CCC[C@@H](n2nc(-c3ccc(Oc4ccccc4)cc3)c3c(N)ncnc32)C1 [ibrutinib]
Summary of the method: as §1

[12] = compound: CC(=O)c1cnc2ccc(-c3cc(Cl)c(O)c(Cl)c3)nc2c1N[C@H]1CC[C@H](CN(C)C)CC1
Summary of the method: as §1

[13] = compound: CC(C)(C)Cn1c(N)nc2ccc(-c3[nH]c(C(C)(C)C)nc3-c3ccc(F)cc3)nc21 [ralimetinib]
Summary of the method: as §1

[14] = compound: CC(C)(O)CC(=O)NCCn1ccc2ncnc(Nc3ccc(Oc4cccc(C(F)(F)F)c4)c(Cl)c3)c21
Summary of the method: as §1

[15] = compound: CC(C)C1=C2N=C(C=C(N2N=C1)NCC3=CC=CC=C3)NCCCCCCN
Summary of the method: as §1

[16] = compound: CC1=C(C(CC(=O)N1)C2=CC=C(C=C2)C(F)(F)F)C(=O)NC3=C(C=C4C(=C3)C=NN4)F
Summary of the method: as §1

[17] = compound: CC1=C(C2=C(C=C1)C(=O)C3=CC=CC=C3N2CCCN)C
Summary of the method: as §1

[18] = compound: CC1=C(C=C(C=C1)NC(=O)C2=CC(=CC=C2)C(C)(C)C#N)NC3=CC4=C(C=C3)N=CN(C4=O)C
Summary of the method: as §1

[19] = compound: CC1=C(C=C(C=C1)NC(=O)C2=CC(=CC=C2)N(C)C)NC(=O)C3=CC=C(C=C3)O
Summary of the method: as §1

[20] = compound: CC1=CC=C(C=C1)SC2=C3C=C(SC3=CN=C2)C(=O)N
Summary of the method: as §1

Measured: log2 fold change

N6AMT1 (UniProt Q9Y5N5)
inactive: [1] 0.022 | [2] -0.053 | [3] -0.082 | [4] 0.02 | [5] -0.097 | [6] 0.013 | [7] -0.272 | [8] 0.005 | [9] -0.013 | [10] -0.022 | [11] 0.103 | [12] -0.03 | [13] 0.005 | [14] -0.006 | [15] 0.009 | [16] -0.045 | [17] -0.026 | [18] 0.01 | [19] 0.024 | [20] 0.027

NADSYN1 (UniProt Q6IA69)
inactive: [1] -0.015 | [2] -0.079 | [3] 0.032 | [4] 0.058 | [5] -0.005 | [6] 0.009 | [7] 0.007 | [8] -0.024 | [9] 0.015 | [10] -0.02 | [11] 0.009 | [12] -0.004 | [13] 0.031 | [14] -0.016 | [15] -0.035 | [16] 0.018 | [17] 0.028 | [18] -0.025 | [19] 0 | [20] -0.017

MYO6 isoform 6 (UniProt Q9UM54)
inactive: [1] -0.032 | [2] -0.175 | [3] 0.002 | [4] 0.072 | [5] -0.013 | [6] -0.013 | [7] -0.09 | [8] 0.013 | [9] 0.011 | [10] 0.005 | [11] 0.001 | [12] -0.007 | [13] 0.038 | [14] -0.068 | [15] -0.002 | [16] 0.028 | [17] -0.154 | [18] -0.056 | [19] 0.003 | [20] -0.012

NAF1 (UniProt Q96HR8)
inactive: [1] -0.077 | [2] -0.005 | [3] 0.033 | [4] 0 | [5] -0.004 | [6] -0.12 | [7] 0.012 | [8] -0.004 | [9] 0 | [10] 0.018 | [11] 0.052 | [12] 0.008 | [13] -0.017 | [14] 0.002 | [15] -0.025 | [16] 0.062 | [17] 0.008 | [18] -0.208 | [19] -0.036 | [20] -0.001

NCOA4 isoform 4 (UniProt Q13772)
inactive: [1] 0.056 | [2] 0.02 | [3] -0.016 | [4] -0.123 | [5] 0.044 | [6] -0.023 | [7] -0.022 | [8] 0.004 | [9] -0.097 | [10] 0.017 | [11] 0.009 | [12] 0.004 | [13] -0.007 | [14] -0.008 | [15] 0.031 | [16] 0.052 | [17] -0.054 | [18] -0.027 | [19] 0.031 | [20] -0.176

NCSTN (UniProt Q92542)
inactive: [1] -0.03 | [2] -0.16 | [3] 0.02 | [4] -0.01 | [5] -0.034 | [6] -0.029 | [7] -0.042 | [8] -0.028 | [9] 0.038 | [10] 0.037 | [11] 0.05 | [12] -0.069 | [13] 0.038 | [14] -0.06 | [15] -0.011 | [16] -0.014 | [17] -0.08 | [18] 0.016 | [19] -0.006 | [20] 0.032

NCEH1 (UniProt Q6PIU2)
inactive: [1] -0.019 | [2] 0.039 | [3] 0.001 | [4] 0.048 | [5] -0.008 | [6] 0.008 | [7] -0.064 | [8] -0.002 | [9] 0.004 | [10] 0.02 | [11] 0.006 | [12] 0.021 | [13] 0.058 | [14] -0.037 | [15] -0.076 | [16] 0.033 | [17] -0.049 | [18] -0.03 | [19] 0.001 | [20] -0.041

NCOA2 (UniProt Q15596)
inactive: [1] 0.015 | [2] 0.025 | [3] 0.061 | [4] -0.017 | [5] -0.082 | [6] -0.036 | [7] 0.026 | [8] -0.031 | [9] 0.028 | [10] -0.019 | [11] -0.06 | [12] 0.097 | [13] 0.01 | [14] 0.003 | [15] -0.014 | [16] 0.06 | [17] -0.027 | [18] 0.01 | [19] -0.037 | [20] -0.189

Reprinted at random: two records from the list
NCOA2 (UniProt Q15596)
inactive: [1] 0.015 | [2] 0.025 | [3] 0.061 | [4] -0.017 | [5] -0.082 | [6] -0.036 | [7] 0.026 | [8] -0.031 | [9] 0.028 | [10] -0.019 | [11] -0.06 | [12] 0.097 | [13] 0.01 | [14] 0.003 | [15] -0.014 | [16] 0.06 | [17] -0.027 | [18] 0.01 | [19] -0.037 | [20] -0.189

NAF1 (UniProt Q96HR8)
inactive: [1] -0.077 | [2] -0.005 | [3] 0.033 | [4] 0 | [5] -0.004 | [6] -0.12 | [7] 0.012 | [8] -0.004 | [9] 0 | [10] 0.018 | [11] 0.052 | [12] 0.008 | [13] -0.017 | [14] 0.002 | [15] -0.025 | [16] 0.062 | [17] 0.008 | [18] -0.208 | [19] -0.036 | [20] -0.001

From the supplement of paper PMC10849652
